Test: general procedure: solution-phase peptide synthesis; TBTU / N-methylmorpholine

Substance | final purity (method not given) (late stage modification step, acetate) | final purity (method not given) (coupling step, acetate salt (3AcOH))
H-D-Arg-DMeTyr-Lys-Phe-NH2.3AcOH | higher than 98.5% | –
Z-D-Arg-Dmt(Bzl)-Lys(Z)-Phe-NH2 | – | close to 99%
